{"source": "patent US11406619B2", "about": "“Injectable formulations” (priority 2020, dated 2022)", "origin": "cited, not measured here", "system": "depression and anxiety rating scales", "settings": "randomised double blind studies; cited from earlier work", "note": "At least one compound was matched to its structure with a doubt left.", "data": [{"smiles": "CN(C)CCc1c[nH]c2cccc(OP(=O)(O)O)c12", "note": "[psilocybin, [3-(2-Dimethylaminoethyl)-1H-indol-4-yl] dihydrogen phosphate]", "values": [{"measurement": "depression and anxiety rating scales", "value": "significant improvement"}]}]}
